We go through 37 targets from the supplement of paper PMC12819154, “High-throughput peptide-centric local stability assay extends protein–ligand identification to membrane proteins, tissues and bacteria” (Nature Structural & Molecular Biology, 2025).

Amino acid sequences for entries named in this document (tags omitted). A change or cut given only in a name is not applied to a line headed by its entry.
UniProt P02802: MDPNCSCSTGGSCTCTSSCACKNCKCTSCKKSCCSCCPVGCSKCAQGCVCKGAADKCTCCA
UniProt P03911, whole entry: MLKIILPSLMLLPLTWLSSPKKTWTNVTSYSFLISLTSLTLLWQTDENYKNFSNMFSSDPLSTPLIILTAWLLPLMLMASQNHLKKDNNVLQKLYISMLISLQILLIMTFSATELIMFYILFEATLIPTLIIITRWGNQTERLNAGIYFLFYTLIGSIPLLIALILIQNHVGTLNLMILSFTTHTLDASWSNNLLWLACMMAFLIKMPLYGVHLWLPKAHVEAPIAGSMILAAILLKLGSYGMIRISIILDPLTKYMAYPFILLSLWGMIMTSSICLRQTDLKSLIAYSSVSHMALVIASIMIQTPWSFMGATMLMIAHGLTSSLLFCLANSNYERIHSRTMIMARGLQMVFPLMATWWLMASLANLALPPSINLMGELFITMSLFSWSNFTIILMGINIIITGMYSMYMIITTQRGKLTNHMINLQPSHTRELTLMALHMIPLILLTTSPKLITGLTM
UniProt P06837, whole entry: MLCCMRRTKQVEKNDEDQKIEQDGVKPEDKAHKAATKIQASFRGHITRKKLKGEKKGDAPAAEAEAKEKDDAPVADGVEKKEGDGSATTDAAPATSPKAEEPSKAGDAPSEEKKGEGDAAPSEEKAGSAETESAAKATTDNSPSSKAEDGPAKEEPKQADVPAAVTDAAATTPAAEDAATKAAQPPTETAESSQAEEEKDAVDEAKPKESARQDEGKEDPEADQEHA
UniProt P23506: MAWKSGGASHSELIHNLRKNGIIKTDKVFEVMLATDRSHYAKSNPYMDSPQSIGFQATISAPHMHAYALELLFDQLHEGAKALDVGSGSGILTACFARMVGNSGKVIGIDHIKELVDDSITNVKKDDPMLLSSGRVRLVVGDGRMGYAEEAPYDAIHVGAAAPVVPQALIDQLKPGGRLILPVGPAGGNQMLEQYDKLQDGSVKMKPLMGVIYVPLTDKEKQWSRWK
UniProt P08103: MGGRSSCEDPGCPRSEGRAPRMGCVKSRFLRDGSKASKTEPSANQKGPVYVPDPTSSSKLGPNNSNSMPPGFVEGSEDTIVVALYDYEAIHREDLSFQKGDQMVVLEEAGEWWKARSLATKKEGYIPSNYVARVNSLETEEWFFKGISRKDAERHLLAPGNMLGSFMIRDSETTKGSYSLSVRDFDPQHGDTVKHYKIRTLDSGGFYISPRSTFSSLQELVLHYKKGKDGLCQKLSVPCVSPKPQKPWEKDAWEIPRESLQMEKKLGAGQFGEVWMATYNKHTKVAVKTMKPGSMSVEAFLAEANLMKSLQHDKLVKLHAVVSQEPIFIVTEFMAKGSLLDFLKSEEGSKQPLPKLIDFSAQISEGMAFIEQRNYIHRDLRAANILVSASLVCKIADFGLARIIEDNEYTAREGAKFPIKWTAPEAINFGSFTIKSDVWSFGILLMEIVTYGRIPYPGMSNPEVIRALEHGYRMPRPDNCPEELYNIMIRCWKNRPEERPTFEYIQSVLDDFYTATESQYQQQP
UniProt P04370, whole entry: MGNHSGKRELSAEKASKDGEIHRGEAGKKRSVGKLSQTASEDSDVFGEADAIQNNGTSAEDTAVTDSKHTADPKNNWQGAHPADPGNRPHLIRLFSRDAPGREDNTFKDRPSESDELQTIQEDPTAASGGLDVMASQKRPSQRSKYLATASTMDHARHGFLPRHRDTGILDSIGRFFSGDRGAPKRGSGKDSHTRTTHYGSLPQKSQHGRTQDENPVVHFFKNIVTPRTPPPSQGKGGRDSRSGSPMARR
UniProt P19783: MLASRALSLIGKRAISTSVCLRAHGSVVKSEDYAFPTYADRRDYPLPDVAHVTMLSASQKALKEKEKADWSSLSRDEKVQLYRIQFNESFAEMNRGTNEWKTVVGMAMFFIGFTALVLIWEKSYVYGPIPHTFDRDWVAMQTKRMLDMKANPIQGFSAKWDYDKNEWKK
UniProt P10493: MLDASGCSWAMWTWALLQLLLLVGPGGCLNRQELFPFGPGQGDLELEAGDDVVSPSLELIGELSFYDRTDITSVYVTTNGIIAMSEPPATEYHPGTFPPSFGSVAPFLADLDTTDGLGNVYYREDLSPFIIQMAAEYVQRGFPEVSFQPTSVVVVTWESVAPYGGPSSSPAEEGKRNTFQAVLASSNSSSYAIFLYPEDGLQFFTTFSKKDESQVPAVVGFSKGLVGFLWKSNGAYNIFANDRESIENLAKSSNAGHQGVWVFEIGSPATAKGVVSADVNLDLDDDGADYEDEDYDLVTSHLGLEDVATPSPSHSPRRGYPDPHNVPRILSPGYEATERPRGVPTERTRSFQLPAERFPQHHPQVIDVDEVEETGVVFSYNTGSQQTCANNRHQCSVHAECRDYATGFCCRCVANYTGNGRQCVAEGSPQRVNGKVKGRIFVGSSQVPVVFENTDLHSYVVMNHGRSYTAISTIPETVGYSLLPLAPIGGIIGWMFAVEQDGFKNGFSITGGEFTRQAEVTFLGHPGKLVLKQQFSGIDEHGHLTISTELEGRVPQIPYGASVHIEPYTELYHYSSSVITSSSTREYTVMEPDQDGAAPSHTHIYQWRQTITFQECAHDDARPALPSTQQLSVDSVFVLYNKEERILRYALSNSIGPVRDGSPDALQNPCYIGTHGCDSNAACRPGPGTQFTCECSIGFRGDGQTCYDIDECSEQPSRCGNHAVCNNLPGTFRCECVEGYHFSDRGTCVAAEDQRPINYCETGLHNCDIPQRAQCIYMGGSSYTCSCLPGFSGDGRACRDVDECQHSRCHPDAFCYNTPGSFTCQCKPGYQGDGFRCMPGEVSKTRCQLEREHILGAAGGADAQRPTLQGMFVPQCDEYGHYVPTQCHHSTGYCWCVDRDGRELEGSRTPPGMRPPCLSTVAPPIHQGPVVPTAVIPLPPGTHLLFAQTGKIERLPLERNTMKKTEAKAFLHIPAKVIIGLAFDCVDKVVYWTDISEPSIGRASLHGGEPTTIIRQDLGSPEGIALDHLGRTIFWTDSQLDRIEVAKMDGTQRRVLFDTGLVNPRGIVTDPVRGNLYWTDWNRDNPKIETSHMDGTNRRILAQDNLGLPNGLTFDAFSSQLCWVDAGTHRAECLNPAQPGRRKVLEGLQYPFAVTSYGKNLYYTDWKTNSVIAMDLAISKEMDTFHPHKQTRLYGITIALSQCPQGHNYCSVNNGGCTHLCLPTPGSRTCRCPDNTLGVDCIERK
UniProt P07091: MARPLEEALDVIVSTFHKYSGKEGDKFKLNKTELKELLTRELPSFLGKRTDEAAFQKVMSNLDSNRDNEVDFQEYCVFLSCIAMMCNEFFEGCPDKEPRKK
UniProt P27046: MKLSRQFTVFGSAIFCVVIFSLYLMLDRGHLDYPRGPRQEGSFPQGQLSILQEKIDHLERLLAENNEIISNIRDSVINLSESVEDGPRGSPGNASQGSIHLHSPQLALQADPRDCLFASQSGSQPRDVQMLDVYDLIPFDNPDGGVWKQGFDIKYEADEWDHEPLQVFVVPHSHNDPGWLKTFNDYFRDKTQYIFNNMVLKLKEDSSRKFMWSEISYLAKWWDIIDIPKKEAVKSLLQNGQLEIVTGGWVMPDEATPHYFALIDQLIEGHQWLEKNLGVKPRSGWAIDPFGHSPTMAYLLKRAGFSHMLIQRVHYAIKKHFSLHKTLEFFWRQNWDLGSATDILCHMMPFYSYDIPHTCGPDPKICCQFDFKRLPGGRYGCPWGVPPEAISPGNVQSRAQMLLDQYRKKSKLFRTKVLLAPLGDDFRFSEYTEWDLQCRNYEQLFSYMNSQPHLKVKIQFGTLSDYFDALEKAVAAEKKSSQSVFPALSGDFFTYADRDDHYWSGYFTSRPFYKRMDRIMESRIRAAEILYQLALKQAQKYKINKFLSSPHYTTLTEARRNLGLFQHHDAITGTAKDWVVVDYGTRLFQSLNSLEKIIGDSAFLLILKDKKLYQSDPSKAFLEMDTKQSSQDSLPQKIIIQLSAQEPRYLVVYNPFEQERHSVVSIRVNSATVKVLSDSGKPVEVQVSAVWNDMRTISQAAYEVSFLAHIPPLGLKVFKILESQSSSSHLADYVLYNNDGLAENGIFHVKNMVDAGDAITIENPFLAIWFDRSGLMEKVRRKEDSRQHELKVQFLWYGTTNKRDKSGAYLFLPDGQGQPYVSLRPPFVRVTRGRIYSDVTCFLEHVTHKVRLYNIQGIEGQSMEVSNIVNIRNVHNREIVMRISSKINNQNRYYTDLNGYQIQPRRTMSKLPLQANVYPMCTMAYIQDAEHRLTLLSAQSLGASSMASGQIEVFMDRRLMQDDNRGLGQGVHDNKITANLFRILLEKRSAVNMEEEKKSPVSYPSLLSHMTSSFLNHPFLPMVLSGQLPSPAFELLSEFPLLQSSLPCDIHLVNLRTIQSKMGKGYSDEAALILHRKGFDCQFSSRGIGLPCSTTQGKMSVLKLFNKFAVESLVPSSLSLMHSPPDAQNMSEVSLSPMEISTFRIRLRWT
UniProt P09671: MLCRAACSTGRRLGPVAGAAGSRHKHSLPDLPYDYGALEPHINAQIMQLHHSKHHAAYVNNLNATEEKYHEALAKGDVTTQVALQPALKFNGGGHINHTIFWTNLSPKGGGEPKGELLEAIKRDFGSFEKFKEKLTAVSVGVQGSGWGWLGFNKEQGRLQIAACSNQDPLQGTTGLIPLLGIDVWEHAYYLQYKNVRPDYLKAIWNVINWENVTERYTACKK
UniProt P24721: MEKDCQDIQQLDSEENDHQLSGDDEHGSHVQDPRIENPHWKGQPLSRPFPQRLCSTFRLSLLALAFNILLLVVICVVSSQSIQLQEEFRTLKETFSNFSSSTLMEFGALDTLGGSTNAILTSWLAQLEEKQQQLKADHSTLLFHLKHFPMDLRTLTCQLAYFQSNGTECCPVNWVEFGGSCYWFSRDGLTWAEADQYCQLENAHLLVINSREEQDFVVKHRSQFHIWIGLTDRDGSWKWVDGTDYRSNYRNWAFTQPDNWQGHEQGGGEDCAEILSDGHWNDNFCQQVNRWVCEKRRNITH
UniProt P10518: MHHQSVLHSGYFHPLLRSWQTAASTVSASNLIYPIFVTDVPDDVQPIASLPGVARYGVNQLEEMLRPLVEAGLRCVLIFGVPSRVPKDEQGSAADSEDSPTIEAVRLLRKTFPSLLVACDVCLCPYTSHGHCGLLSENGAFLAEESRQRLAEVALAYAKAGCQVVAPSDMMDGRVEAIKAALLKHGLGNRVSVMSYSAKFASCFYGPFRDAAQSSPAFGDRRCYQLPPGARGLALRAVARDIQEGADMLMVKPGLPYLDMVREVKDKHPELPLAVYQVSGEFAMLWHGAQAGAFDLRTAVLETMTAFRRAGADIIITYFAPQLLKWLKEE
UniProt P23881: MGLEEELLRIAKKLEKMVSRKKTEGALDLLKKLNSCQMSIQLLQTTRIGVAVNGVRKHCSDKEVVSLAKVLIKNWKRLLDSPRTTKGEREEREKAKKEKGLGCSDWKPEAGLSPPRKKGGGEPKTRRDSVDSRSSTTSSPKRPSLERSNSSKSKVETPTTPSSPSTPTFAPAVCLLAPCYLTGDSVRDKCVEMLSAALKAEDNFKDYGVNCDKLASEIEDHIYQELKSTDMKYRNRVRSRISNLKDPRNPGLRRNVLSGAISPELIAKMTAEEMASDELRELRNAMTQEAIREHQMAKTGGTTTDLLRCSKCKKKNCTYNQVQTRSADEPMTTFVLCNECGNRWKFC
UniProt P17439: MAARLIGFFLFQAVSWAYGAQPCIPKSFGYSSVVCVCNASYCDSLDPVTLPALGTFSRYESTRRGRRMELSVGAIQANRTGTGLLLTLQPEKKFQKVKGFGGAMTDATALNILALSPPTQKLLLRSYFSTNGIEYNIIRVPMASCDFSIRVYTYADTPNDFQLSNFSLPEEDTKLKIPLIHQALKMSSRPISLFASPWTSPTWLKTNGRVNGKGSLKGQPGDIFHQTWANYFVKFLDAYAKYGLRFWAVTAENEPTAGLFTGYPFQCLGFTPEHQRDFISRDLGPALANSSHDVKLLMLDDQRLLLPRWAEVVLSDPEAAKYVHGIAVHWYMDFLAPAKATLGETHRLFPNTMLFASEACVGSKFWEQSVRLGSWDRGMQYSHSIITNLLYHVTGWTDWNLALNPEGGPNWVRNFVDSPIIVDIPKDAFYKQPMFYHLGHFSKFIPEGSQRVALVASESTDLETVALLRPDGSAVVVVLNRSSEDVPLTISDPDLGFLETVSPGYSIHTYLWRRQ
UniProt P12787, whole entry: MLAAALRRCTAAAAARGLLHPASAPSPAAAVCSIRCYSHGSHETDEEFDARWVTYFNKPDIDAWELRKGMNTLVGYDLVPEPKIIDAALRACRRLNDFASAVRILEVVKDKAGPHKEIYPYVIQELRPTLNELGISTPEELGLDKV
UniProt P23589: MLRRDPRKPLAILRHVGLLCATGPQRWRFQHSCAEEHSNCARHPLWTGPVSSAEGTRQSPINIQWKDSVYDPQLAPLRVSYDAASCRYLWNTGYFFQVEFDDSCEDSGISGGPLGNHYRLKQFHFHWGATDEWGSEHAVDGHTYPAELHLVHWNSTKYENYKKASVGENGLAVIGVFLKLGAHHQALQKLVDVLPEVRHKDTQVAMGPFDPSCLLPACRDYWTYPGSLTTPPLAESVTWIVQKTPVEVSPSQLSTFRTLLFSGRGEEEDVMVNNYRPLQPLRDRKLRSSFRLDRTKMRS

The other results are listed elsewhere or left out. Most entries show no effect beyond the scatter of the controls.

Compound in the assay: CN[C@@H]1C[C@H]2O[C@@](C)([C@@H]1OC)n1c3ccccc3c3c4c(c5c6ccccc6n2c5c31)C(=O)NC4 [staurosporine]
Put plainly: log2 fold change of pooled soluble protein (PISA), ligand vs vehicle (log2 ratio); higher = more thermally stabilized. As to conditions: ligand concentration: 20 uM; assay format: PISA pool 52.9/55.5/58.6 C.
For UniProt P02802, the “log2 fold change of pooled soluble protein” value (from here on “log2 fold change”) came out at 0.486.

In the case of UniProt P03911, the “log2 fold change” value is 0.053.

Turning to UniProt P06837, the “log2 fold change” value was 0.0563.

As for UniProt P19253, the “log2 fold change” value amounted to 0.00632.

Regarding UniProt P05201, the “log2 fold change” value was determined as 0.0123.

In the case of UniProt P04939, the “log2 fold change” value was 0.0255.

Consider UniProt P19096, for which the “log2 fold change” value was -0.0745.

Turning to UniProt P23506, the “log2 fold change” value is 0.0799.

Regarding UniProt P08103, the “log2 fold change” value stood at 0.335.

Consider UniProt P04370, for which the “log2 fold change” value stood at 0.122.

Regarding UniProt P24668, the “log2 fold change” value was found to be 0.102.

UniProt P22682: the “log2 fold change” value is 0.349.

Regarding UniProt P19783, the “log2 fold change” value was -0.00832.

As to UniProt P10493, the “log2 fold change” value was -0.109.

As for UniProt P18828, the “log2 fold change” value was -0.152.

On to UniProt P10605, for which the “log2 fold change” value came to 0.123.

Regarding UniProt P26187, the “log2 fold change” value was -0.137.

In the case of UniProt P08113, the “log2 fold change” value amounted to 0.0318.

Consider UniProt P08226, for which the “log2 fold change” value was -0.0349.

In the case of UniProt P07901, the “log2 fold change” value is -0.0147.

Regarding UniProt P11688, the “log2 fold change” value is -0.00233.

UniProt P07091: the “log2 fold change” value is -0.174.

As for UniProt P26039, the “log2 fold change” value is -0.0218.

In the case of UniProt P27046, the “log2 fold change” value was found to be 0.028.

For the target UniProt P05555, the “log2 fold change” value is 0.0452.

As to UniProt P09671, the “log2 fold change” value was -0.299.

With UniProt P24721, the “log2 fold change” value is -0.0433.

Regarding UniProt P19137, the “log2 fold change” value was -0.104.

As to UniProt P10518, the “log2 fold change” value was -0.0043.

On to UniProt P23881, for which the “log2 fold change” value was 0.225.

Consider UniProt P12790, for which the “log2 fold change” value came out at 0.0433.

Consider UniProt P17439, for which the “log2 fold change” value was found to be 0.147.

UniProt P12787: the “log2 fold change” value was -0.125.

On to UniProt P24063, for which the “log2 fold change” value came to 0.0304.

As to UniProt P0C7L0, the “log2 fold change” value is -0.0861.

For the target UniProt P06330, the “log2 fold change” value was -0.00441.

Take UniProt P23589: the “log2 fold change” value is -0.106.
